Test results: patent publication US20250042911A1, “NOVEL BENZOPYRAN DERIVATIVE AND USE THEREOF” (SPARK BIOPHARMA, INC, priority 2021, published 2025)
The name of at least one read-out is uncertain.

Tested on: melanoma cells (B316F10)
Experiment: Tumor growth inhibition in C57BL/6 syngeneic mouse model implanted with melanoma cells
Type: in vivo
Settings: 20 mg/kg orally once a day for 9 or 10 days, female C57BL/6 mice with implanted melanoma cells, tumor volume vs control group
Description: The tumor growth inhibition effect of benzopyrene derivatives was evaluated in a C57BL/6 mouse tumor model (syngeneic mouse model) in which melanoma cells (B316F10) derived from C57BL/6 mice are implanted.
After the quarantine and acclimation period was over, a cell suspension prepared with 5×10^5 cells/0.1 mL PBS was filled into a disposable syringe and administered in an amount of 0.1 mL PBS/head subcutaneously to the right back of healthy test animals (female C57BL/6, 7 weeks old) for implantation. After cell line implantation, general symptoms were observed once daily during the engraftment and growth period. Animals with no abnormalities in their health and whose tumor volume reached 50 to 100 mm^3 when measured with a digital caliper were selected. Then, based on tumor volume and body weight, the groups were separated so that the average tumor volume per group was 70 to 100 mm^3. Ten (10) animals were separated per group, and 20 mg/kg of benzopyran derivatives were administered orally once a day for 9 or 10 days. Tumor volume was measured once every 2 or 3 days.
The measured tumor volume of the test compound administered groups was compared with that of the control group and is represented in Table 2 as the tumor growth inhibition (TGI, %).

SMILES | TGI (%) | TGI (%) (hydrochloride)
CC(=O)C(=O)N1CCN(C(=O)Oc2ccc3c(c2)OC(C)(C)C2=CCn4c(=O)n(-c5ccc(C(C)=O)cc5)c(=O)n4C23)CC1 (centres unmarked) [Example 68, 2-(4-acetylphenyl)-7,7-dimethyl-1,3-dioxo-2,3,5,12b-tetrahydro-1H,7H-chromeno[4,3-c][1,2,4]triazolo[1,2-a]pyridazin-10-yl 4-(2-oxopropanoyl)piperazine-1-carboxylate] | 33.7 | 
CC(=O)c1ccc(-n2c(=O)n3n(c2=O)C2C(=CC3)C(C)(C)Oc3cc(OC(=O)CN(C)C)ccc32)cc1.Cl (centres unmarked) [Example 72, 2-(4-acetylphenyl)-7,7-dimethyl-1,3-dioxo-2,3,5,12b-tetrahydro-1H,7H-chromeno[4,3-c][1,2,4]triazolo[1,2-a]pyridazin-10-yl dimethylglycinate hydrochloride] |  | 29.6
